Assay results from US8921515B2, “Methods and compositions of preparation for proteome analysis” (Case Western Reserve University, priority 2011, dated 2014).

Assays:
[1] = Removal of PFOA from digests by evaporation, residual PFOA by flow injection MS
[2] = PFOA amount in SCX, HILIC, FSPE and ANX chromatography fractions by flow injection analysis

## O=C(O)C(F)(F)C(F)(F)C(F)(F)C(F)(F)C(F)(F)C(F)(F)C(F)(F)F [PFOA, perfluorooctanoic acid]
[1]; BSA digest, three cycles ethanol:ethylacetate:water:TFA, evaporation at 60° C., 760 Torr
  PFOA amount in the BSA digest: below detectable level
[1]; OS digest, another three cycles, evaporation at 60° C., 760 Torr (Sample 1)
  residual PFOA: not detectable
[1]; OS digest, three cycles under low pressure (Sample 2)
  residual PFOA as % of the initial amount: 1.2%
[1]; OS membrane protein digest, 1 mg PFOA initially, three cycles reconstitution/evaporation under low pressure (Sample 2)
  residual PFOA: 12 µg
[2]; ANX, flow through (peak m), 200 μg PFOA loaded
  estimated PFOA amount: 141.2 µg
[2]; ANX, flow-through fraction
  share of the PFOA loaded on the column found in the fraction: 70%
[2]; ANX, washing 1 (peak n)
  estimated PFOA amount: below detection limit
[2]; ANX, washing 2 (peak o)
  estimated PFOA amount: below detection limit
[2]; FSPE, 70% methanol washing fraction (peak j)
  estimated PFOA amount: 81.8 µg
[2]; FSPE, 80% methanol washing fraction (peak k)
  estimated PFOA amount: 22.9 µg
[2]; FSPE, 100% methanol washing fraction (peak l)
  estimated PFOA amount: 2.3 µg
[2]; FSPE, flow through (peak i)
  estimated PFOA amount: trace amount
[2]; FSPE, washing fraction 1, 70% methanol
  share of the total PFOA loaded onto the column that was eluted: over 40%
[2]; HILIC, flow through (peak e), 200 μg PFOA loaded
  estimated PFOA amount: 181.7 µg
[2]; HILIC, low-organic elution fraction (peak h)
  estimated PFOA amount: below detection limit
[2]; HILIC, washing 1 (peak f)
  estimated PFOA amount: trace amount
[2]; HILIC, washing 2 (peak g)
  estimated PFOA amount: below detection limit
[2]; SCX, flow through (peak a), 200 μg PFOA loaded
  estimated PFOA amount: 211.1 µg
[2]; SCX, high-salt elution fraction (peak d)
  estimated PFOA amount: trace amount
[2]; SCX, washing 1 (peak b)
  estimated PFOA amount: below detection limit
[2]; SCX, washing 2 (peak c)
  estimated PFOA amount: below detection limit
